Laboratory results as given in PubChem BioAssay AID504467 (National Center for Advancing Translational Sciences (NCATS), 2011).
The campaign covered roughly 330,000 compounds. About 7,700 (2.3%) were called active. The inconclusive results got no clear call from the source; some entries with a clear call stand among them for comparison. The call rests on the fitted dose curve; in most records, active means well fitted inhibition curve with a large enough effect; inconclusive means small, poorly fitted or top-dose-only effect, or effect the other way; inactive means flat fitted curve, though single readings scatter. Potencies beside an inconclusive call are fits to weak or partial responses and may not hold up.

assay: qHTS screen for small molecules that inhibit ELG1-dependent DNA repair in human embryonic kidney (HEK293T) cells expressing luciferase-tagged ELG1; conditions: HEK293T ELG1-luciferase reporter, luminescence, 16 h, DNA damage induced by 5-fluorouridine; activity change, negative = inhibition: at 46.1 µM (top of the series); further: nearly all actives have a fitted effect of over 55% in size
How it was run: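 Cells (2,000 per well) received 5-fluorouridine plus test compound or DMSO and were incubated 16 hr at 37 °C, 5% CO2. Luciferase activity was read by luminescence 30 min after ONE-Glo addition; signal suppression marked inhibition of damage-induced ELG1 function.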
On the % scale 0 is the no-effect control and ±100 the full control effect; potency means the concentration at half of the fitted maximal effect.

Q: For `COc1ccc(NC(=O)c2sc3nc(C)nc(N4CCN(c5ccccn5)CC4)c3c2C)c(OC)c1`, which Potency is on record?
A: Its Potency is active: 2.31 µM.

Q: With `Cc1ccc(-c2nc(Nc3ccc(O)cc3)c3ccccc3n2)cc1` as the compound, how does the Potency read?
A: The Potency was inconclusive: 23.1 µM [inhibitor, single point].

Q: For `COc1ccc(CNc2ccc(C(=O)O)cc2)cc1`, which Potency is on record?
A: Its Potency is inconclusive: 14.6 µM [activator, single point].

Q: For `O=C(O)CCCN1C(=O)/C(=C/c2ccc(-c3nc4ccccc4s3)o2)SC1=S`, which Potency is on record?
A: The Potency was inconclusive: 11.6 µM [activator, partial curve, poor fit].

Q: Which Potency does the source give for `Cc1nc(/C=C\C(=O)O)c2cc(C)oc2n1` here?
A: Its Potency is “inactive”.

Q: With `Cn1c(N)c(S(=O)(=O)N2CCCC2)c(=O)n(C)c1=O` as the compound, how does the Potency read?
A: The Potency was “inactive”.

Q: Which Potency does the source give for `Cc1ccc(N(C(=O)c2ccccn2)C(C(=O)NC2CCCCC2)c2ccncc2)cc1` (centres undefined) here?
A: Its Potency is inconclusive: 29.1 µM [activator, partial curve, poor fit].

Q: For `COc1ccc(C(CNC(=O)c2cc3ccccc3o2)N2CCCC2)cc1` (centres undefined), which Potency is on record?
A: Its Potency is “inactive”.

Q: For `O=C(NNS(=O)(=O)c1ccc2ccccc2c1)c1cc(-c2ccccn2)nc2ccccc12`, which Potency is on record?
A: Its Potency is “inactive”.

Q: For `CCOc1cccc(-c2nc3cc(C)ccc3o2)c1`, which Potency is on record?
A: Its Potency is inconclusive: 7.31 µM [activator, partial curve].

Q: Which Potency does the source give for `CC(=O)N1CCC2(CC1)CC(=O)c1cc(OCC(=O)N3CCCC3)ccc1O2` here?
A: Its Potency is “inactive”.

Q: Which Potency does the source give for `COCCCN=C(c1ccco1)n1c(=S)nc(-c2ccco2)n(CCCOC)c1=S` here?
A: Its Potency is inconclusive: 7.31 µM [activator, partial curve].

Q: For `CCCOC1CCCN(C(=O)c2cc(COc3ccc(F)c(F)c3)on2)C1` (centres undefined), which Potency is on record?
A: Its Potency is inconclusive: 11.6 µM [activator, partial curve].

Q: With `COc1cc(CCC(=O)OCC(=O)Nc2c(C)cc(C)cc2C)cc(OC)c1OC` as the compound, how does the Potency read?
A: The Potency was inconclusive: 5.8 µM [activator, partial curve, poor fit].

Q: For `Cc1ccc(C)c(N2CCN(C(=O)CN(C)S(=O)(=O)c3ccc4c(c3)CCC(=O)N4)CC2)c1`, which Potency is on record?
A: The Potency was active: 23.1 µM.

Q: With `CCN(c1ccccc1)S(=O)(=O)c1ccc(N2CCN(c3ccc(O)cc3)CC2)nc1` as the compound, how does the Potency read?
A: The Potency was inconclusive: 18.3 µM [inhibitor, single point].

Q: With `COCCn1c(N2CCN(c3ccc(OC)cc3)CC2)nc2c1c(=O)n(C)c(=O)n2C` as the compound, how does the Potency read?
A: The Potency was active: 18.4 µM.

Q: Which Potency does the source give for `COc1cc2[nH]c(C(=O)N3CCc4ccccc4C3)cc2c(OC)c1OC` here?
A: Its Potency is inconclusive: 10.3 µM [inhibitor, partial curve, poor fit].

Q: With `CC(=O)OC1c2ccccc2C(=O)N1Cc1ccccc1Cl` (centres undefined) as the compound, how does the Potency read?
A: Its Potency is inconclusive: 20.6 µM [activator, partial curve, poor fit].

Q: With `CN1C(=O)C(C)(C)c2cc(S(=O)(=O)NCC3CCC(C(=O)NCc4ccc(F)cc4)CC3)ccc21` (centres undefined) as the compound, how does the Potency read?
A: The Potency was “inactive”.

Q: For `CC(=O)Nc1nnc(SCC(=O)N2CCCc3ccccc32)s1`, which Potency is on record?
A: The Potency was “inactive”.

Q: With `Fc1ccc(C2CC(c3cccs3)=NN2C(=S)Nc2ccccc2)cc1` (centres undefined) as the compound, how does the Potency read?
A: The Potency was “inactive”.

Q: Which Potency does the source give for `CCOc1ccc2c(c1)[nH]c(=S)n2C` here?
A: Its Potency is inconclusive: 18.3 µM [activator, single point].

Q: With `COC(=O)CC1C(=O)NCCN1C(=S)Nc1ccccc1Cl` (centres undefined) as the compound, how does the Potency read?
A: The Potency was inconclusive: 29.1 µM [inhibitor, partial curve, poor fit].

Q: For `O=C(Nc1ccccc1C(=O)N1CCOCC1)C1CCCO1` (centres undefined), which Potency is on record?
A: Its Potency is “inactive”.

Q: For `CC(=O)Nc1ccc(S(=O)(=O)N2CCN(CC3CC4C=CC3C4)CC2)cc1` (centres undefined), which Potency is on record?
A: The Potency was “inactive”.

Q: For `CC1=NNC(=O)C1CCC(=O)N/N=C(\C)c1ccccc1` (centres undefined), which Potency is on record?
A: The Potency was inconclusive: 1.16 µM [inhibitor, partial curve, poor fit].

Q: For `CCC(CO)(CO)N(CC(=O)Nc1ccc(OC)cc1)CC(=O)Nc1ccc(OC)cc1`, which Potency is on record?
A: Its Potency is inconclusive: 18.3 µM [inhibitor, single point].

Q: With `CC(=O)Nc1nnc(SCC(=O)N2C(C)CCCC2C)s1` (centres undefined) as the compound, how does the Potency read?
A: The Potency was “inactive”.

Q: With `N=c1c(C(=O)NCc2ccccc2)cc2c(=O)n3ccccc3nc2n1Cc1ccco1` as the compound, how does the Potency read?
A: The Potency was inconclusive: 16.4 µM [inhibitor, single point].

Q: Which Potency does the source give for `CN(C)c1ccc(C(CNS(=O)(=O)c2ccc([N+](=O)[O-])cc2)N2CCCC2)cc1` (centres undefined) here?
A: Its Potency is “inactive”.

Q: With `CC(C)C1N=C2c3ccccc3N=C(SCC#N)N2C1=O` (centres undefined) as the compound, how does the Potency read?
A: The Potency was inconclusive: 18.4 µM [inhibitor, single point].

Q: For `CSc1nc(N(C)NC(=O)c2ccc(F)cc2)c2ccccc2n1`, which Potency is on record?
A: The Potency was inconclusive: 0.58 µM [inhibitor, partial curve, poor fit].

Q: With `CC(C)c1cc(C(=O)OCC(=O)NC(=O)NCc2ccco2)c(O)c(C(C)C)c1` as the compound, how does the Potency read?
A: Its Potency is “inactive”.

Q: Which Potency does the source give for `CC(C)(C)C(=O)Nc1cccc(-c2cc(-c3c(Cl)cccc3Cl)no2)c1` here?
A: Its Potency is active: 8.2 µM.

Q: For `CC(C)(C)c1ccc(OCCC(=O)OCC(=O)N2c3ccccc3NC(=O)C2(C)C)cc1`, which Potency is on record?
A: Its Potency is “inactive”.

Q: For `Fc1ccc(N2CCN(c3nc(CN4CCOCC4)nc4scc(-c5ccccc5)c34)CC2)cc1`, which Potency is on record?
A: The Potency was inconclusive: 16.4 µM [inhibitor, single point].

Q: For `N#Cc1c(Nc2ccccc2)sc(C(=O)C2CC2)c1N`, which Potency is on record?
A: Its Potency is inconclusive: 29.1 µM [activator, single point].

Q: Which Potency does the source give for `C/C(CC(=O)NCc1ccccc1Cl)=N/NC(=O)c1ccccn1` here?
A: Its Potency is inconclusive: 18.3 µM [activator, single point].

Q: Which Potency does the source give for `CCOc1ccccc1N1CCN(S(=O)(=O)c2ccc(F)c(F)c2)CC1` here?
A: Its Potency is inconclusive: 29.1 µM [inhibitor, single point].

Q: For `Cc1nc(N2CCN(Cc3ccc4c(c3)OCO4)CC2)c2cc(-c3ccccc3)sc2n1`, which Potency is on record?
A: The Potency was inconclusive: 29.1 µM [inhibitor, single point].

Q: With `COc1ccc(NN=Nc2nc3c([nH]2)c(=O)n(C)c(=O)n3C)cc1` as the compound, how does the activity change, negative = inhibition read?
A: The activity change, negative = inhibition was inconclusive: 64.5% [activator].

Q: With `CN1CCc2c(n(CC(O)CN(CCO)CCO)c3ccccc23)C1=O` (centres undefined) as the compound, how does the Potency read?
A: Its Potency is “inactive”.

Q: Which Potency does the source give for `Cc1ccc(-n2ncc3c2CC(C)(C)CC3NC(=O)CCc2cccnc2)cc1` (centres undefined) here?
A: Its Potency is inconclusive: 14.6 µM [inhibitor, partial curve, poor fit].

Q: For `FC(F)(F)c1cccc(NC(=S)NCCN2CCOCC2)c1`, which Potency is on record?
A: Its Potency is “inactive”.

Q: For `COc1cccc(-c2nc(=S)c3c(n2Cc2ccco2)CCCC3)c1`, which Potency is on record?
A: Its Potency is inconclusive: 18.4 µM [activator, partial curve, poor fit].

Q: With `N#Cc1c(C(F)(F)F)cc(-c2cccs2)nc1SCc1cccnc1` as the compound, how does the Potency read?
A: The Potency was inconclusive: 11.2 µM [inhibitor, single point].

Q: For `Cc1nc2ccc(NS(=O)(=O)c3ccc(Br)cc3)cc2s1`, which Potency is on record?
A: Its Potency is “inactive”.

Q: For `O=C(NCCn1cc(SCc2ccccc2)c2ccccc21)c1ccccc1F`, which Potency is on record?
A: Its Potency is active: 13 µM.

Q: Which Potency does the source give for `O=C1NC(NS(=O)(=O)c2ccccc2)(C(F)(F)F)C(=O)N1c1cccc(Cl)c1` (centres undefined) here?
A: The Potency was “inactive”.

Q: With `CC(=O)Nc1ccc(S(=O)(=O)N2CCC(C(=O)NC3CCCC3)CC2)cc1` as the compound, how does the Potency read?
A: The Potency was inconclusive: 9.2 µM [activator, partial curve].

Q: For `COc1ccccc1CNC(=O)C(=O)c1cn(CC(=O)N2CCCC2)c2ccccc12`, which Potency is on record?
A: Its Potency is “inactive”.

Q: Which Potency does the source give for `O=S(=O)(O)c1cc2oc(-c3ccccc3)nc2c2ccccc12` here?
A: Its Potency is “inactive”.

Q: With `CC12c3ccccc3C(c3ccccc31)C1C(=O)N(c3cccnc3)C(=O)C12` (centres undefined) as the compound, how does the Potency read?
A: The Potency was “inactive”.

Q: With `COc1ccc(-n2cnc3cc(NS(=O)(=O)c4ccccc4)ccc32)cc1` as the compound, how does the Potency read?
A: The Potency was inconclusive: 23.1 µM [inhibitor, partial curve, poor fit].

Q: With `Cn1nc(C(F)(F)F)c(-c2cccc(C(F)(F)F)c2)c1NC(=O)Nc1ccc(F)cc1` as the compound, how does the Potency read?
A: The Potency was “inactive”.

Q: For `COc1ccc(OC)c(NC(=O)COC(=O)c2n[nH]c3ccccc23)c1`, which Potency is on record?
A: Its Potency is inconclusive: 20.6 µM [inhibitor, single point].

Q: With `COc1ccccc1N(C)S(=O)(=O)c1ccc(Cl)c(C(=O)NC2=NCCS2)c1` as the compound, how does the Potency read?
A: The Potency was “inactive”.

Q: For `O=C(Nc1ccc2c3c(cccc13)CC2)c1cccc([N+](=O)[O-])c1`, which Potency is on record?
A: Its Potency is inconclusive: 29.1 µM [inhibitor, single point].

Q: Which Potency does the source give for `CCOc1ccccc1C(=O)Nc1nnc(C(C)C)s1` here?
A: Its Potency is inconclusive: 9.2 µM [activator, partial curve].

Q: Which Potency does the source give for `O=C(CC12CC3CC(CC(C3)C1)C2)NCC(c1ccc(F)cc1)N1CCOCC1` (centres undefined) here?
A: The Potency was “inactive”.

Q: With `Cc1ccc(O)c(/C=N/NC(=O)Cc2ccc(Cl)cc2)c1` as the compound, how does the Potency read?
A: Its Potency is inconclusive: 14.6 µM [inhibitor, single point].

Q: For `CCOc1cc(-c2noc(CCC(=O)Nc3cccnc3)n2)ccc1OC`, which Potency is on record?
A: Its Potency is active: 20.6 µM.

Q: Which Potency does the source give for `COc1ccccc1CNC(=O)COC(=O)c1cccc(-n2cnnn2)c1` here?
A: Its Potency is “inactive”.

Q: Which Potency does the source give for `O=C(Nc1nc(-c2ccccn2)cs1)c1cc(Cl)ccc1[N+](=O)[O-]` here?
A: The Potency was inconclusive: 29.1 µM [activator, single point].

Q: Which Potency does the source give for `Cc1nc(Cl)sc1C(=O)Nc1ccc(C(F)(F)F)cc1` here?
A: Its Potency is “inactive”.

Q: For `C/C(=N\NC(=O)CNc1cccc(Cl)c1C)C1CC1`, which Potency is on record?
A: The Potency was “inactive”.

Q: Which Potency does the source give for `COc1ccccc1N=NC1=C(O)CC(C)(C)CC1=O` here?
A: Its Potency is inconclusive: 11.6 µM [activator, single point].

Q: Which Potency does the source give for `O=C(Nc1cccc(Cl)c1)C1CCCN(C2=NS(=O)(=O)c3ccccc32)C1` (centres undefined) here?
A: The Potency was “inactive”.

Q: Which Potency does the source give for `COc1ccc(CN(C2CC2)S(=O)(=O)c2ccccc2Br)cc1` here?
A: Its Potency is inconclusive: 20.6 µM [inhibitor, partial curve, poor fit].

Q: For `CCCCCCN1CC(=O)N2Cc3[nH]c4ccccc4c3C[C@H]2C1=O`, which Potency is on record?
A: Its Potency is “inactive”.

Q: For `CCOc1ccc(CC(=O)NNC(=S)NC)cc1`, which Potency is on record?
A: The Potency was “inactive”.

Q: Which Potency does the source give for `CCCNc1nc(N2CCCC2)nc(N2CCCC2)n1` here?
A: The Potency was inconclusive: 9.2 µM [inhibitor, partial curve, poor fit].

Q: For `Cc1csc(NC(=O)c2cccs2)n1`, which Potency is on record?
A: The Potency was inconclusive: 14.6 µM [activator, partial curve].
